This experiment in a line: qHTS Assay to Find Inhibitors of Chronic Active B-Cell Receptor Signaling. Conditions: ABC-DLBCL IkBa-CBG/CBR reporter, luminescence ratio (green luciferase fused to IkBa over red control in TMD8 lymphoma cells), 4 h. The method, boiled down: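 Cell line TMD8 (human ABC DLBCL), stably expressing tet-inducible CBG68-IkBa fusion and CBR; IMDM/0.5% FBS; cpd up to 46 uM; dox induction, 4 h, 37C/5% CO2; dual luminescence; green/red ratio; MG132 control.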

Setting [1] is: measured here: CBR red luminescence, cell number.

Some of the results follow. Shown are side measurements of this screen, not its main read-out; they come without a call. The list favours compounds with an active or inconclusive main result. Potencies come from curve fits of mixed quality, noted in brackets.

With `CC(C)c1ccccc1NC(=S)N1CCN(Cc2ccc3c(c2)OCO3)CC1`, the AC50 under setting [1] was 22.4 µM [falling, partial curve, poor fit].
Still for that read-out and setting: then `Cc1c(NC(=O)C(c2ccccc2)c2ccccc2)cccc1C(=O)O`, with 12.6 µM [rising, partial curve, poor fit]; and `O=c1[nH]c2ccccc2c(O)c1-c1ccccc1[N+](=O)[O-]`, with 35.5 µM [rising, single point]; and `COc1ccc(/C=C2\SC(=S)N(CCC(=O)Nc3cccc(C(=O)O)c3)C2=O)cc1`, with 2.82 µM [falling, full curve].
Same read-out and setting: then `CC(C)(C)c1ccc(/C=C2\Oc3cc(O)ccc3C2=O)cc1`, with 35.5 µM [falling, single point].
Turning to `Oc1ccc(N2CCN(c3nc(-c4cccs4)nc4ccccc34)CC2)cc1`, under setting [1], the AC50 is 15.8 µM [falling, partial curve, poor fit].
Same read-out and setting: under `COCCCN(C(=O)c1ccccc1F)c1nc(-c2ccc(OC)cc2)cs1` stands 15.8 µM [falling, partial curve, poor fit]; under `Cc1cccnc1NC(=O)COc1ccc2c(c1)CCC2`, 23.1 µM [falling, partial curve]; under `CCOC(=O)CN(C(=O)COc1nc(-c2ccccc2)cc(C)c1C#N)c1cccc(OC)c1`, 3.98 µM [falling, partial curve, poor fit].
Same read-out and setting: under `Cc1ccc(NC(=O)CSc2nnc(-c3cnccn3)n2Cc2ccco2)cc1` stands 23.1 µM [falling, single point]; under `COc1ccccc1C(=O)NC(=S)Nc1ccc(NC(=O)c2ccco2)cc1`, 3.16 µM [rising, full curve]; under `COc1cccc(C(c2c(O)nc(SC)n(C)c2=O)c2c(O)nc(SC)n(C)c2=O)c1`, 17.8 µM [falling, single point].
Turning to `COc1ccc([C@H]2CC(=O)C=C(c3ccc4ncccc4c3)C2)cc1OC`, the AC50 under setting [1] is 6.51 µM [rising, single point].
Same read-out and setting: then `Cc1nc(NC(=O)C2CCCC2)sc1Cc1ccc2c(c1)OCO2`, with 18.4 µM [falling, single point]; and `CCSc1nc(N2CCOCC2)c2c(c1C#N)CCCC2`, with 15.8 µM [rising, partial curve, poor fit]; and `CCOC(=O)C1C(=O)OC(C)(C)C1C(CC)C(=O)c1c(C)cc(C)cc1C` (stereo unspecified), with 4.47 µM [falling, full curve].
The same measure, in the same setting: under `COC(=O)c1ccc(NC(=O)c2ccc3nsnc3c2)cc1` stands 2.51 µM [falling, partial curve, poor fit]; under `Cn1c2c(c(=O)n(C)c1=O)C1c3ccccc3OCC1C(C)(C)O2` (stereo unspecified), 0.651 µM [rising, full curve, poor fit]; under `CC(C)(C)NC(=O)CSc1ncnc2c1cnn2-c1ccccc1`, 2.82 µM [falling, full curve, poor fit].
`COc1cccc(Cn2c(=O)c3[nH]cnc3n(-c3ccccc3C)c2=O)c1`: the concentration at half-maximal activity (AC50) under setting [1] is 17.8 µM [rising, partial curve] and the AC50 (measured here: IkBa-CBG green luminescence) is 12.6 µM [falling, single point].
In the case of `COc1ccc(C(=O)N/N=C/C2CC=CCC2)cc1OC` (stereo unspecified), under setting [1], the AC50 is 35.5 µM [falling, single point].
Same read-out and setting: under `CC(C)CN(C(=O)Cn1nnc(-c2ccc(F)cc2)n1)C1CCS(=O)(=O)C1` (stereo unspecified) stands 20.6 µM [falling, partial curve]; under `Cc1ccc(/C([O-])=C(/C(=S)NCc2ccccc2)[n+]2cccc(CO)c2)cc1[N+](=O)[O-]`, 35.5 µM [rising, partial curve, poor fit]; under `O=[N+]([O-])c1ccc(N/N=C/c2ccccc2)c(F)c1`, 0.58 µM [rising, full curve].
The same measure, in the same setting: then `CC(Oc1ccc(F)cc1)C(=O)Nc1cc(S(=O)(=O)N2CCCCC2)ccc1N1CCOCC1` (stereo unspecified), with 4.11 µM [rising, full curve, poor fit]; and `COc1ccc(Nc2nc(NCc3ccco3)nc(N3CCOCC3)n2)cc1`, with 35.5 µM [falling, single point]; and `Cc1nc2c(cnn2-c2ccc(Cl)cc2)c(=O)n1-c1ccc(N2CCC(C)CC2)cc1`, with 6.51 µM [rising, single point].
On the same count and under the same terms, under `COc1ccc(C(=O)/C=C2/C(=O)Nc3ccccc32)cc1OC` stands 35.5 µM [falling, single point]; under `Cc1ccn2c(=O)nc(SCC(=O)c3ccccc3)nc2c1`, 1.84 µM [falling, full curve].
Take `CCNS(=O)(=O)c1ccc(OCCNS(C)(=O)=O)cc1`: the AC50 under setting [1] was 0.651 µM [falling, partial curve, poor fit].
Still for that read-out and setting: under `COc1cccc(/C=C/C2=CC(C)(C)NC(=S)N2)c1` stands 10 µM [falling, partial curve]; under `c1ccc(SCc2cc(-c3ccccc3)no2)cc1`, 15.8 µM [falling, single point].
The same measure, in the same setting: then `CC1CCCCC12NC(=O)N(CC(=O)OCC(=O)N(C)C1CCCCC1)C2=O` (stereo unspecified), with 9.2 µM [rising, partial curve, poor fit]; and `Cc1c(NC(=O)C23CC4CC(CC(C)(C4)C2)C3)c(=O)n(-c2ccccc2)n1C`, with 3.98 µM [falling, single point].
Still for that read-out and setting: then `CCS(=O)(=O)N1Cc2ccccc2CC1C(=O)NCC12CC3CC(CC(C3)C1)C2` (stereo unspecified), with 0.82 µM [rising, partial curve, poor fit].
As to `CC(=O)c1c(C)[nH]c(C(=O)COC(=O)c2cccc(S(=O)(=O)N(C)c3ccccc3)c2)c1C`, under setting [1], the AC50 is 20.6 µM [falling, single point].
In the case of `O=C(O)CCCC(=O)Nc1ccc2c(c1)oc1ccccc12`, under setting [1], the concentration at half-maximal activity (AC50) was 0.282 µM [falling, full curve].
Same read-out and setting: under `O=C(O)c1ccccc1SC1CC(=O)N(c2cccc3ccccc23)C1=O` (stereo unspecified) stands 20 µM [falling, partial curve, poor fit].
For `O=C(/C=C/c1ccc(Cl)cc1Cl)NC(=S)Nc1ccc(CN2CCOCC2)cc1`, the AC50 under setting [1] is 23.1 µM [falling, single point].
Same read-out and setting: then `O=C(Nc1nc(N2C(=O)c3ccccc3C2=O)n(-c2ccccc2)n1)c1ccc(Cl)cc1`, with 17.8 µM [falling, single point].

Source of the values: PubChem BioAssay AID493014 (National Center for Advancing Translational Sciences (NCATS), 2011).
